Reference: PMC5362953
No constants are given. Whether binding was seen depends on the method and setting. In cells and extracts the contact can be indirect. Some entries that bind do so weakly or less than the wild type.

The chains behind the UniProt entries cited, without tags or fusion partners. Residues count along the entry.
UniProt Q9Y4K0, residues 26-774: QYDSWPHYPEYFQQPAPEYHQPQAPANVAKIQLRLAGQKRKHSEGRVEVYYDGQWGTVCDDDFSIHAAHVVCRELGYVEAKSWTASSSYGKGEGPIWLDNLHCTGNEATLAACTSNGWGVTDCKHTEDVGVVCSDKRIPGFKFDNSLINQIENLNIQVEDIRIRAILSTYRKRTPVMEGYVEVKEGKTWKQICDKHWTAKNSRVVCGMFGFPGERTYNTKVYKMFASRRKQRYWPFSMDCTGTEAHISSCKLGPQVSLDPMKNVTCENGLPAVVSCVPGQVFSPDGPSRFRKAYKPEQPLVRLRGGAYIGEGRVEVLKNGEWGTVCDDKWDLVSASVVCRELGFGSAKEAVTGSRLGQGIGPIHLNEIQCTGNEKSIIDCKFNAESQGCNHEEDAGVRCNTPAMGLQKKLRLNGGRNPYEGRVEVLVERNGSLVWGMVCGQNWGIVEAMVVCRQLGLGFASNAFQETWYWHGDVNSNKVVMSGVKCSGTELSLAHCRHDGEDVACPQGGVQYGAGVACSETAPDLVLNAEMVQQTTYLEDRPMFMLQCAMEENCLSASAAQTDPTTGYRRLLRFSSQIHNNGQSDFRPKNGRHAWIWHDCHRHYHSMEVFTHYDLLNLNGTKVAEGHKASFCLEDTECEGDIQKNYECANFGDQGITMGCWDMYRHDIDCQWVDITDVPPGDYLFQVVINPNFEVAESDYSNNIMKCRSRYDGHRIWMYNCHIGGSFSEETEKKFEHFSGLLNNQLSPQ
UniProt P11021, residues 19-654: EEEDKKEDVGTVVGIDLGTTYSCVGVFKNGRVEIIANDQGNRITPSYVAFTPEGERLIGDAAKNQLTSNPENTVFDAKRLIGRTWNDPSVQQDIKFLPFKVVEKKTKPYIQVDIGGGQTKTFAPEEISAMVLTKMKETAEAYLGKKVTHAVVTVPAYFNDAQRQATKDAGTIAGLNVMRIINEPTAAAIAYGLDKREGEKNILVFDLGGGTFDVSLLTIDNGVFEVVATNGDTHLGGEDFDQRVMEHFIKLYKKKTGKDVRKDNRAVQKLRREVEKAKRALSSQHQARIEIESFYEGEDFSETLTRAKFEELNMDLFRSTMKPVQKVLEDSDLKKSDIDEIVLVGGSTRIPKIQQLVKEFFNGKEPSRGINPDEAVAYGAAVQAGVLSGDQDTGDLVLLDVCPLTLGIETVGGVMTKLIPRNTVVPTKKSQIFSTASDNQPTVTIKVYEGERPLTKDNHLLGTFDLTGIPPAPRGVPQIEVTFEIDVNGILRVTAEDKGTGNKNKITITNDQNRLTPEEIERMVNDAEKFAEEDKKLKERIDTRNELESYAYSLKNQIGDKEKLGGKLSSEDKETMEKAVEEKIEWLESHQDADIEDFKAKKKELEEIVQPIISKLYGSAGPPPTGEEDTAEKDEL

Assays:
[1] = biological target: Flag-tagged version of LOXL2 (lysyl oxidase-like 2), from pcDNA3-hLOXL2-Flag (human) (UniProt Q9Y4K0); experiment: co-IP; HEK293T cells ectopically expressing LOXL2; performed as described in ref. 14
[2] = biological target: HSPA5 (endogenous in Hs578T cells) (human (endogenous in Hs578T)) (UniProt P11021); experiment: co-IP; total membranes of Hs578T cells solubilized in TXNE buffer (10 mM Tris-HCl pH 7.5, 150 mM NaCl, 2 mM EDTA, 1% Triton X-100); immunoprecipitated with anti-HSPA5 on Dynabeads Protein G 3 h at 4 °C; immunoblot

Substance	binding [1]	binding [2]
HSPA5 (endogenous in HEK293T cells) (from UniProt P11021 19-654)	binds	
LOXL2 (endogenous in Hs578T cells) (from UniProt Q9Y4K0 26-774) (enzyme)		binds
